Laboratory results: patent US7226919B2, “Compositions useful as inhibitors of protein kinases” (Vertex Pharmaceuticals Inc., priority 2002, dated 2007)
Some entries share one result that the patent states for a list of compounds.

Molecular target: T1, JAK (Homo sapiens, UniProt P52333)
T1 sequence (P52333 1-1124): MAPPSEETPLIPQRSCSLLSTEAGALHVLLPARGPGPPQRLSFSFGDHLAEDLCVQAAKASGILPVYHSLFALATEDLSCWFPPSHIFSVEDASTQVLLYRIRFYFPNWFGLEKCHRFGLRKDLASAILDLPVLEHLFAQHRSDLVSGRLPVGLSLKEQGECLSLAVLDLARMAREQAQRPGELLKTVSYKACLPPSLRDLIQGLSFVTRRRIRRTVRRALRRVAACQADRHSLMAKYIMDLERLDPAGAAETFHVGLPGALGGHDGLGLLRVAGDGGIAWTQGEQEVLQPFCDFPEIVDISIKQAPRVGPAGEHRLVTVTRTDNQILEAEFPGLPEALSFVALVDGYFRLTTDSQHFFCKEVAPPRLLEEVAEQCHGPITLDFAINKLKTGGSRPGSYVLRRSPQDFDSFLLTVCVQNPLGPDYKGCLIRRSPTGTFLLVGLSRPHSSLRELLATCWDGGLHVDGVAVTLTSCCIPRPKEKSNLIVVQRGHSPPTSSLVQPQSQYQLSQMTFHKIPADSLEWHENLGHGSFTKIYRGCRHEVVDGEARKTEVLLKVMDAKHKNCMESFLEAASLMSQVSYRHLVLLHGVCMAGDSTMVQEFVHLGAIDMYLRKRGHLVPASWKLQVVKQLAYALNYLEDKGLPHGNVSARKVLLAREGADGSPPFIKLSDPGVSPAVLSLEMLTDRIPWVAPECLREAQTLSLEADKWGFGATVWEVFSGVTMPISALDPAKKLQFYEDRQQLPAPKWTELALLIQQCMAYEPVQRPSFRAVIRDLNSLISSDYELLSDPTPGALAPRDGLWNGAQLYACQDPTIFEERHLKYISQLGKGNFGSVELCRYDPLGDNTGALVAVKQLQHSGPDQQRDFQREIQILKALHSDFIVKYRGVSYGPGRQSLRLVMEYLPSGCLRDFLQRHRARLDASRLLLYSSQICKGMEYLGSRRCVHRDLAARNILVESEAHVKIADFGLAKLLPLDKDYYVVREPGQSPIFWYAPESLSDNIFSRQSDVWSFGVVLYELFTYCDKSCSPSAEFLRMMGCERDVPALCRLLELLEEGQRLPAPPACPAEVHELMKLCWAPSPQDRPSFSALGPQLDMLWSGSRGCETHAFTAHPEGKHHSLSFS
Test: JAK Inhibition Assay (ELISA, Poly (Glu, Ala, Tyr) 6:3:1 substrate)
Type: biochemical
Conditions: JAK enzyme, 2 μM ATP, 60 minutes at 30° C.

Row | SMILES | Ki
1 | Nc1cccc(Nc2nccc(-c3ccc4noc(-c5ccnc(N6CCOCC6)n5)c4c3)n2)c1 [I-4] | < 2500 nM
2 | Nc1nccc(-c2ccc3noc(-c4cccnc4)c3c2)n1 [I-1] | < 1500 nM
3 | Nc1nccc(-c2ccc3noc(-c4ccnc(N5CCOCC5)n4)c3c2)n1 [I-3] | < 1500 nM
